In patent publication US6486381B1, “Genetically engineered mice containing alterations in the genes encoding retinoic acid receptor proteins” (Institut National de la Sante et de la Recherche Medicale, priority 1993, dated 2002):
At least one compound was matched to its structure with a doubt left.

Tested on: RARβ2 promoter/lacZ reporter gene
Assay: RA induction of RARβ2 promoter/lacZ transgene activity in wild type and RARβ2 null embryos
Assay type: in vivo, mouse
Settings: RA treatment on 11.5 dpc; wild type, heterozygous and homozygous embryos

SMILES: CC1=C(/C=C/C(C)=C/C=C/C(C)=C/C(=O)O)C(C)(C)CCC1 [RA, retinoic acid]
- LacZ expression in the limb buds (apical ectodermal ridge and core mesenchyme): induced
